The experiment deals with FimH (Escherichia coli (uropathogenic)) (UniProt P08191). Kind of experiment: SEC; FimD:FimC:FimH mixed with chaperone:subunit complex at a 1:1.5 ratio, then gel filtration (Superose-12) in 50 mM Tris pH 8.0, 150 mM NaCl, 1 mM EDTA, 0.05% DDM; both purified.

Chains of the proteins cited; added tags and fusions are not shown. Residues count along the entry.
UniProt P08191, residues 22-300: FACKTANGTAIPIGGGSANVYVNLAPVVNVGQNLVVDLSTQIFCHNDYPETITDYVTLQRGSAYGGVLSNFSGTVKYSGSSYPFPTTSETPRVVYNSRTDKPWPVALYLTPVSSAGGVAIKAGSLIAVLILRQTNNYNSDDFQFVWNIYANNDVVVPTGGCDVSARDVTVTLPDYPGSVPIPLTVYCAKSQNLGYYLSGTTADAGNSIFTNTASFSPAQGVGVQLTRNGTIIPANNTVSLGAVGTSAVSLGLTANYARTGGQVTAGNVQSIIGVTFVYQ

Results are given in words; binding and its absence hold for the method and conditions named. Some entries that bind do so weakly or less than the wild type.

Results on 1 molecule are retold here after paper PMC3650583, “Dissection of Pilus Tip Assembly by the FimD Usher Monomer” (Journal of Molecular Biology, 2013).

B1: FimG (natural protein)
chain: ADVTITVNGKVVAKPCTVSTTNATVDLGDLYSFSLMSAGAASAWHDVALELTNCPVGTSRVTASFSGAADSTGYYKNQGTAQNIQLELQDDSGNTLNTGATKTVQVDDSSQSAHFPLQVRALTVNGGATQGTIQAVISITYTYS
notes: also called unlabelled FimG; FimC:FimG (as chaperone complex)
Take B1: the binding result is “binds”.
